System: T1, GABAA receptors of ganglioglioma (GG) tissue (microtransplanted human brain membranes)
T1 construct: gene GABRA1
Conditions: before IL-10; agonist; nH 1.5 ± 0.1; pH 7.4, 20-22 °C; GG patients # 8-10; n = 16

With `NCCCC(=O)O` [GABA] the EC50 was 106 ± 1.5 µM.

From PMC9605959, “GABAA receptor function is enhanced by Interleukin-10 in human epileptogenic gangliogliomas and its effect is counteracted by Interleukin-1β” (Scientific Reports, 2022)
